# Experimental data taken from PubChem BioAssay AID1347076 (National Center for Advancing Translational Sciences (NCATS), 2019).
# Screen size: about 400,000 compounds; about 13,000 (3.2%) were called active. Inconclusive means that the source gave no clear call. Such entries were picked first, then a sample of the others. The call rests on the fitted dose curve; in most records, active means well fitted cell-killing curve with a large enough effect; inconclusive means small, poorly fitted or top-dose-only effect, or effect the other way; inactive means flat fitted curve, though single readings scatter. Potencies beside an inconclusive call are fits to weak or partial responses and may not hold up.
# Experiment: qHTS assay for MDR1-selective chemotherapeutics: Primary screen using the drug-selected MDR subline cells KB-V1; further: nearly all actives have a fitted effect of over 60% in size
# Settings: KB-V1 MDR cells viability, CellTiter-Glo, 72 h; activity change, negative = cytotoxicity: at 46.1 µM (top of the series)
# Summary of the method: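 Following 72 h at 37 degrees C with compound, KB-V1 cell viability was read by CellTiter-Glo luminescence, medium being phenol-red-free DMEM plus 10% FBS; concentration-response parameters came from normalized, curve-fitted qHTS data.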
# On the % scale 0 is the no-effect control and ±100 the full control effect; potency means the concentration at half of the fitted maximal effect.
SMILES,Potency,"activity change, negative = cytotoxicity"
CNC[C@@H](CC1CCCCC1)NC[C@H](CC(C)C)NCCc1cccc(C(F)(F)F)c1,"inconclusive: 29.1 µM [cytotoxic, single point]",–
Cc1ccc(OCCN2CCN(C(=O)CCC(=O)Nc3nnc(C)s3)CC2)cc1,–,inactive: 8.95%
O=C(c1cc(C2CC2)on1)N1CCCC(N2CCN(c3cccc(C(F)(F)F)c3)CC2)C1 (stereo not given),–,inactive: -3.68%
CN1CCN(S(=O)(=O)c2cccc(C(=O)N(Cc3nnc(-c4ccc(Cl)cc4)o3)C3CC3)c2)CC1,–,inactive: -25.1%
COc1ccc(C(=O)Nc2ccc(Cl)cc2C(=O)NCc2ccco2)cc1OC,"inconclusive: 23.1 µM [cytotoxic, single point]",–
CN(C)c1ccc(/C=C/C(=O)c2cccc(Br)c2)cc1,"inconclusive: 23.1 µM [cytotoxic, single point]",–
COc1cccc(C(=O)c2sc(NC(C)C)nc2N)c1,"inconclusive: 29.1 µM [cytotoxic, single point]",–
COc1cc2c(cc1NC(=O)C(C)NCc1ccccc1)oc1ccccc12 (stereo not given),"inconclusive: 14.6 µM [cytotoxic, partial curve]",–
CC(C)N1C(=O)C(O)(C2COC(C)(C)CC2=O)c2ccccc21 (stereo not given),–,inactive: 0.103%
CN(C)c1ccc(/C=C/C(=O)c2ccc(O)cc2)cc1[N+](=O)[O-],"inconclusive: 29.1 µM [cytotoxic, single point]",–
Nc1ccc(Cn2ccc3c4c(N)nc(N)nc4ccc32)cc1,"inconclusive: 2.06 µM [cytotoxic, full curve]",–
Cc1ccc(C)c(N2N=C(C(=O)Nc3ccccc3N3CCCC3)CCC2=O)c1,"inconclusive: 16.4 µM [cytotoxic, partial curve]",–
CC1(C(=O)NCc2ccccc2Br)CCN1Cc1ccccc1OC(F)F (stereo not given),active: 23.1 µM,–
O=C(NCCCN1CCC(Cc2ccccc2)CC1)C1CCC(=O)N1C1CCCC1 (stereo not given),"inconclusive: 29.1 µM [rising, single point]",–
CC(C)C(NC(=O)c1ccccc1)C(=O)N1CCN(C/C=C/c2ccccc2)CC1 (stereo not given),–,inactive: -2.63%
COC(=O)CSc1nc(NC#N)nc(NC(C)(C)C)n1,"inconclusive: 16.4 µM [rising, partial curve, poor fit]",–
COc1ccc(N/C=C\C(=O)c2ccc3c(c2)OCO3)cc1,"inconclusive: 20.6 µM [cytotoxic, single point]",–
O=C1CCCCC(=O)N(c2ccccc2)c2ccccc21,active: 18.4 µM,–
COC(=O)c1ccc(COc2ccc(F)cc2)o1,"inconclusive: 29.1 µM [rising, partial curve, poor fit]",–
CCOC(=O)c1cc(-c2ccccc2)sc1NC(=O)C(C)OC(=O)c1ccncc1 (stereo not given),"inconclusive: 20.6 µM [cytotoxic, single point]",–
Cc1cc(C)c(C#N)c(SCC(=O)OC2CCCCC2)n1,"inconclusive: 25.9 µM [cytotoxic, single point]",–
O=S(=O)(c1ccccc1F)N1CCN(c2nc(-c3cccnc3)nc3ccccc23)CC1,"inconclusive: 9.2 µM [cytotoxic, partial curve, poor fit]",–
CC(=O)N1C(O)CC(C)N1c1ccccc1 (stereo not given),–,inactive: -4.28%

# Shown with tabs: nine of the compounds above.
SMILES	Potency	activity change, negative = cytotoxicity
CNC[C@@H](CC1CCCCC1)NC[C@H](CC(C)C)NCCc1cccc(C(F)(F)F)c1	inconclusive: 29.1 µM [cytotoxic, single point]	–
O=C(c1cc(C2CC2)on1)N1CCCC(N2CCN(c3cccc(C(F)(F)F)c3)CC2)C1 (stereo not given)	–	inactive: -3.68%
COc1cc2c(cc1NC(=O)C(C)NCc1ccccc1)oc1ccccc12 (stereo not given)	inconclusive: 14.6 µM [cytotoxic, partial curve]	–
Cc1ccc(C)c(N2N=C(C(=O)Nc3ccccc3N3CCCC3)CCC2=O)c1	inconclusive: 16.4 µM [cytotoxic, partial curve]	–
O=C(NCCCN1CCC(Cc2ccccc2)CC1)C1CCC(=O)N1C1CCCC1 (stereo not given)	inconclusive: 29.1 µM [rising, single point]	–
CC(C)C(NC(=O)c1ccccc1)C(=O)N1CCN(C/C=C/c2ccccc2)CC1 (stereo not given)	–	inactive: -2.63%
COc1ccc(N/C=C\C(=O)c2ccc3c(c2)OCO3)cc1	inconclusive: 20.6 µM [cytotoxic, single point]	–
O=C1CCCCC(=O)N(c2ccccc2)c2ccccc21	active: 18.4 µM	–
Cc1cc(C)c(C#N)c(SCC(=O)OC2CCCCC2)n1	inconclusive: 25.9 µM [cytotoxic, single point]	–

# Going on with the list.

SMILES,Potency,"activity change, negative = cytotoxicity"
CC(C)NC(=O)NC(=O)CSc1nnc(COc2ccccc2Cl)o1,"inconclusive: 10.3 µM [rising, partial curve, poor fit]",–
COc1cccc(CN2CC(C(=O)N(C)C3CCOCC3)CCC2=O)c1 (stereo not given),"inconclusive: 18.4 µM [rising, single point]",–
COc1ccc(-c2cc3nc(NCCOc4ccccc4)ccn3n2)cc1,–,inactive: -1.29%
CCCCCCSc1cccc(-c2nc3ccc(C)cn3c2NCc2ccccc2)c1,–,inactive: -1.69%
CC(C)C(=O)N1CCN(c2ccc([N+](=O)[O-])cc2Cl)CC1,active: 20.6 µM,–
COc1ccccc1C(c1nnnn1C(C)(C)C)N1CCCCCC1 (stereo not given),"inconclusive: 18.4 µM [cytotoxic, single point]",–
Cc1cc(NC(=O)CCC(=O)N(Cc2ccc(F)cc2)C(C(=O)NC2CCCC2)c2ccco2)no1 (stereo not given),"inconclusive: 18.4 µM [cytotoxic, single point]",–
CCOC(=O)c1cccc(NC(=O)CCc2c(C)nc3cc(-c4ccc(Cl)cc4)nn3c2C)c1,–,inactive: 5.95%
c1ccc(-c2nc(-c3ccccn3)nc(-c3ccccn3)n2)nc1,"inconclusive: 29.1 µM [cytotoxic, single point]",–
c1ccc(Cn2nc(-c3ccccc3)nc2-c2ccccc2)cc1,–,inconclusive: -31.7% [cytotoxic]
O=C(c1ccccc1)N1CCN(c2ncnc3sc4c(c23)CCC4)CC1,–,inactive: 0%
CCc1ccccc1NC(=O)CSC1=C(C#N)C(c2ccc3c(c2)OCO3)C2=C(CCCC2=O)N1 (stereo not given),"inconclusive: 13 µM [cytotoxic, partial curve, poor fit]",–
C=CCn1c(SCC(=O)N2CCc3ccccc3C2)nc2ccccc2c1=O,"inconclusive: 20.6 µM [cytotoxic, single point]",–
Cc1ccc(C)c(N(Cc2cc3ccc(C)cc3[nH]c2=O)C(=O)c2ccco2)c1,"inconclusive: 4.61 µM [cytotoxic, partial curve]",–
COc1cc(/C=C2\SC(=O)N(CC(=O)Nc3ccc(C)cc3)C2=O)cc(Cl)c1OCC(=O)O,"inconclusive: 29.1 µM [rising, single point]",–
O=C(COC(=O)C1CCN(S(=O)(=O)c2ccc3c(c2)OCCO3)CC1)NC1CCCCC1,–,inactive: 3.69%
Cc1cc(C)c(OCCCCCn2ccnc2)c(C)c1,–,inconclusive: -30.9% [cytotoxic]
Cc1ccc(NC(=S)N(CCCN2CCOCC2)Cc2ccco2)cc1C,"inconclusive: 11.6 µM [cytotoxic, partial curve]",–
O=C(NCCCN1CCCC1)c1cc2c(Cl)nc3ccccc3c2s1,"inconclusive: 25.9 µM [cytotoxic, single point]",–
COc1ccc(-c2ccc(CNc3ccc4[nH]c(=O)[nH]c4c3)o2)cc1Cl,–,inactive: -24%
CC1CCCN(c2nc(NCc3ccco3)nc(N)c2[N+](=O)[O-])C1 (stereo not given),active: 14.6 µM,–
O=C(NCC(c1cccs1)N1CCOCC1)c1cc(F)cc(F)c1 (stereo not given),"inconclusive: 29.1 µM [cytotoxic, single point]",–
